Assay results published in the supplement of paper PMC9233669.
This sample is rich in variants without activity.

How the values were obtained:
[1] = test system: biotinyl-Ile-oxazolone; test: self-aminoacylation, catalytic enhancement (BIO) (fold over background); higher = more active; k-Seq, kA / k0A0; sequences stand for … in GGGAAUGGAUCCACAUCUACGAAUUC…UUCACUGCAGACUUGACGAAGCUG
How it was run: (§1)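 Working in 50 μL HEPES/NaCl/KCl/MgCl2/CaCl2 buffer with 5% acetonitrile at pH 6.9–7.0, mutagenized RNA pools (0.43 μM; 21-nt variable region) were reacted with 2–1250 μM of each biotinyl-aminoacyl-oxazolone for 90 minutes at room temperature. Streptavidin capture followed, with quantification by triplicate qPCR and Illumina sequencing. Catalytic enhancement is reported as median kA over the uncatalyzed rate, the low-activity peak of a bimodal Gaussian fit to the data.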

[2] = test system: biotinyl-Val-oxazolone; test: self-aminoacylation, catalytic enhancement (BVO) (fold over background); higher = more active; k-Seq, kA / k0A0; sequences stand for … in GGGAAUGGAUCCACAUCUACGAAUUC…UUCACUGCAGACUUGACGAAGCUG
How it was run: as §1

[3] = test system: biotinyl-Leu-oxazolone; test: self-aminoacylation, catalytic enhancement (BLO) (fold over background); higher = more active; k-Seq, kA / k0A0; sequences stand for … in GGGAAUGGAUCCACAUCUACGAAUUC…UUCACUGCAGACUUGACGAAGCUG
How it was run: as §1

[4] = test system: biotinyl-Met-oxazolone; test: self-aminoacylation, catalytic enhancement (BMO) (fold over background); higher = more active; k-Seq, kA / k0A0; sequences stand for … in GGGAAUGGAUCCACAUCUACGAAUUC…UUCACUGCAGACUUGACGAAGCUG
How it was run: as §1

Sequence: CCAGCCUUCAAGCAAUCGGUC [Fam1B.1 aminoacylation ribozyme variant]
- self-aminoacylation [1]: 1.2
- self-aminoacylation [2]: 1.48
- self-aminoacylation [3]: 1.81
- self-aminoacylation [4]: 1.37

Sequence: AACUUUGCUAAUAGUAGCAAG [Fam3.1 aminoacylation ribozyme variant]
- self-aminoacylation [1]: 1.77
- self-aminoacylation [2]: 1.67
- self-aminoacylation [3]: 1.76
- self-aminoacylation [4]: 2.2

Sequence: CCACACUUCAAGCAAUCGGCC [Fam1B.1 aminoacylation ribozyme variant]
- self-aminoacylation [1]: 1.65
- self-aminoacylation [3]: 1.63
- self-aminoacylation [4]: 1.75

Sequence: CCACACUUUAAGCAAUAGGUC [Fam1B.1 aminoacylation ribozyme variant]
- self-aminoacylation [1]: 0.619
- self-aminoacylation [2]: 0.683
- self-aminoacylation [3]: 0.578
- self-aminoacylation [4]: 0.592

Sequence: AUUACCCUGGUUAGCGAGUGA [Fam2.1 aminoacylation ribozyme variant]
- self-aminoacylation [1]: 2.2
- self-aminoacylation [2]: 2.1
- self-aminoacylation [3]: 4.28
- self-aminoacylation [4]: 4.21

Sequence: AUUUACCUAGGUCAUCGAGUG [Fam2.2 aminoacylation ribozyme variant]
- self-aminoacylation [1]: 6.62
- self-aminoacylation [2]: 5.4
- self-aminoacylation [3]: 12.7
- self-aminoacylation [4]: 9.76

Sequence: CUACUUCGAACAAUCGUUCUG [Fam1A.1 aminoacylation ribozyme variant]
- self-aminoacylation [1]: 0.432
- self-aminoacylation [2]: 0.49
- self-aminoacylation [3]: 0.457
- self-aminoacylation [4]: 0.453

Sequence: CCACACUUCCAGCAAUCGGUG [Fam1B.1 aminoacylation ribozyme variant]
- self-aminoacylation [1]: 2.74
- self-aminoacylation [2]: 3.05
- self-aminoacylation [3]: 4.82
- self-aminoacylation [4]: 3.83

Sequence: AACUUUGCAAAUAGUCGCAAG [Fam3.1 aminoacylation ribozyme variant]
- self-aminoacylation [1]: 2.3
- self-aminoacylation [2]: 1.94
- self-aminoacylation [3]: 2.8
- self-aminoacylation [4]: 1.96

Sequence: AUUACCCUAGUCAUCGGGUGA [Fam2.1 aminoacylation ribozyme variant]
- self-aminoacylation [1]: 4.76
- self-aminoacylation [2]: 4.8
- self-aminoacylation [3]: 8.62
- self-aminoacylation [4]: 7.55

Sequence: CCACAUUUCAACCAAUCGGUC [Fam1B.1 aminoacylation ribozyme variant]
- self-aminoacylation [1]: 1.55
- self-aminoacylation [2]: 1.6
- self-aminoacylation [3]: 1.64
- self-aminoacylation [4]: 1.75

Sequence: CUUCGCCUAGGUCAUCGGGUG [Fam2.2 aminoacylation ribozyme variant]
- self-aminoacylation [1]: 3.75
- self-aminoacylation [2]: 4.54
- self-aminoacylation [3]: 4.47
- self-aminoacylation [4]: 3.41

Sequence: CCACAUUUCAAGCAAUCGGGC [Fam1B.1 aminoacylation ribozyme variant]
- self-aminoacylation [1]: 3.08
- self-aminoacylation [2]: 2.7
- self-aminoacylation [3]: 2.78
- self-aminoacylation [4]: 3.55

Sequence: CUACUUCAACCAAUCGGUCAG [Fam1A.1 aminoacylation ribozyme variant]
- self-aminoacylation [1]: 0.884
- self-aminoacylation [2]: 0.854
- self-aminoacylation [3]: 0.724
- self-aminoacylation [4]: 0.629

Sequence: UUACUUCAAACAAUGGGUCUG [Fam1A.1 aminoacylation ribozyme variant]
- self-aminoacylation [1]: 1.05
- self-aminoacylation [2]: 1.05
- self-aminoacylation [3]: 1.06
- self-aminoacylation [4]: 1.03

Sequence: AUUACCGUUGUCAUCGAGUGA [Fam2.1 aminoacylation ribozyme variant]
- self-aminoacylation [1]: 4.49
- self-aminoacylation [2]: 4.16
- self-aminoacylation [3]: 8.01
- self-aminoacylation [4]: 7.75

Sequence: AGUACCGUGGUCAUCGAGUGA [Fam2.1 aminoacylation ribozyme variant]
- self-aminoacylation [1]: 3.61
- self-aminoacylation [2]: 3.39
- self-aminoacylation [3]: 5.87
- self-aminoacylation [4]: 5.19

Sequence: CUACUUCAAACAAUCGGUCUG [Fam1A.1 aminoacylation ribozyme variant]
- self-aminoacylation [1]: 1.1
- self-aminoacylation [2]: 1.17
- self-aminoacylation [3]: 1.86
- self-aminoacylation [4]: 1.21

Sequence: AUUACCCUGGUCUUCAAGUGA [Fam2.1 aminoacylation ribozyme variant]
- self-aminoacylation [1]: 2.76
- self-aminoacylation [2]: 2.67
- self-aminoacylation [3]: 4.28
- self-aminoacylation [4]: 4.91

Sequence: CUACUUCAAACAUUCGGUUUG [Fam1A.1 aminoacylation ribozyme variant]
- self-aminoacylation [1]: 1.17
- self-aminoacylation [2]: 1.2
- self-aminoacylation [3]: 0.962
- self-aminoacylation [4]: 1.05

Sequence: CUACCUCAAACAAUCGGUCUG [Fam1A.1 aminoacylation ribozyme variant]
- self-aminoacylation [1]: 0.923
- self-aminoacylation [2]: 0.994
- self-aminoacylation [3]: 0.911
- self-aminoacylation [4]: 0.938

Sequence: AAGUUUGCUAAUAGUCCCAAG [Fam3.1 aminoacylation ribozyme variant]
- self-aminoacylation [1]: 1.01
- self-aminoacylation [2]: 0.938
- self-aminoacylation [3]: 0.852
- self-aminoacylation [4]: 0.941

Sequence: AUUCACCUACGUGAUCGGGUG [Fam2.2 aminoacylation ribozyme variant]
- self-aminoacylation [1]: 2.19
- self-aminoacylation [2]: 2
- self-aminoacylation [3]: 3.64
- self-aminoacylation [4]: 2.81

Sequence: CCCCACUUCAUGCAAUCGGUC [Fam1B.1 aminoacylation ribozyme variant]
- self-aminoacylation [1]: 1.44
- self-aminoacylation [2]: 1.82
- self-aminoacylation [3]: 1.32
- self-aminoacylation [4]: 1.47

Sequence: AAGUUUCCUAAUAGUCACAAG [Fam3.1 aminoacylation ribozyme variant]
- self-aminoacylation [1]: 1.8
- self-aminoacylation [2]: 1.61
- self-aminoacylation [3]: 1.64
- self-aminoacylation [4]: 1.77

Sequence: AAGUUUUCUAAAAGUCGCAAG [Fam3.1 aminoacylation ribozyme variant]
- self-aminoacylation [1]: 1.69
- self-aminoacylation [2]: 1.42
- self-aminoacylation [3]: 1.65
- self-aminoacylation [4]: 1.86

Sequence: CUACUUCAAGCAAUCGGUCUA [Fam1A.1 aminoacylation ribozyme variant]
- self-aminoacylation [1]: 0.968
- self-aminoacylation [2]: 0.982
- self-aminoacylation [3]: 0.935
- self-aminoacylation [4]: 0.886

Sequence: AUUACCCUGGUCAUAGAGAGA [Fam2.1 aminoacylation ribozyme variant]
- self-aminoacylation [1]: 0.947
- self-aminoacylation [2]: 0.717
- self-aminoacylation [3]: 0.798
- self-aminoacylation [4]: 0.983

Sequence: CUACUUCAAGCAAUCAGUCUG [Fam1A.1 aminoacylation ribozyme variant]
- self-aminoacylation [1]: 0.772
- self-aminoacylation [2]: 0.786
- self-aminoacylation [3]: 0.698
- self-aminoacylation [4]: 0.615

Sequence: AACAUUGCUAAUAGUCGCAAG [Fam3.1 aminoacylation ribozyme variant]
- self-aminoacylation [2]: 1.7
- self-aminoacylation [3]: 1.87
- self-aminoacylation [4]: 1.63

Sequence: AAGUUGGCUAAUAGUCGCAAG [Fam3.1 aminoacylation ribozyme variant]
- self-aminoacylation [1]: 1.7
- self-aminoacylation [2]: 1.55
- self-aminoacylation [3]: 1.57
- self-aminoacylation [4]: 1.55

Sequence: CUCCUUCAAAGAAUCGGUCUG [Fam1A.1 aminoacylation ribozyme variant]
- self-aminoacylation [1]: 0.926
- self-aminoacylation [2]: 1.16
- self-aminoacylation [3]: 1.22
- self-aminoacylation [4]: 0.925

Sequence: CGACCCUUCAAGCAAUCGGUC [Fam1B.1 aminoacylation ribozyme variant]
- self-aminoacylation [1]: 1.45
- self-aminoacylation [2]: 1.62
- self-aminoacylation [3]: 1.18
- self-aminoacylation [4]: 0.97

Sequence: GUACUUCAAACCAUCGGUCUG [Fam1A.1 aminoacylation ribozyme variant]
- self-aminoacylation [1]: 1.22
- self-aminoacylation [2]: 1.18
- self-aminoacylation [3]: 0.918
- self-aminoacylation [4]: 1.13

Sequence: CUACUUCAAAAAAUCGGGCUG [Fam1A.1 aminoacylation ribozyme variant]
- self-aminoacylation [1]: 1.21
- self-aminoacylation [2]: 0.961
- self-aminoacylation [3]: 1.47
- self-aminoacylation [4]: 1.33

Sequence: CCACUCUUCAAGCACUCGGUC [Fam1B.1 aminoacylation ribozyme variant]
- self-aminoacylation [1]: 1.02
- self-aminoacylation [2]: 0.928
- self-aminoacylation [3]: 1.04
- self-aminoacylation [4]: 1.15

Sequence: CUACGUGAAACAAUCGGUCUG [Fam1A.1 aminoacylation ribozyme variant]
- self-aminoacylation [1]: 1.31
- self-aminoacylation [2]: 1.56
- self-aminoacylation [3]: 1.66
- self-aminoacylation [4]: 1.57

Sequence: AAGUGUGCUAAAAGUCGCAAG [Fam3.1 aminoacylation ribozyme variant]
- self-aminoacylation [1]: 1.53
- self-aminoacylation [2]: 1.73
- self-aminoacylation [3]: 1.19
- self-aminoacylation [4]: 1.66

Sequence: AAGUUGGCUUAUAGUCGCAAG [Fam3.1 aminoacylation ribozyme variant]
- self-aminoacylation [1]: 1.59
- self-aminoacylation [2]: 1.61
- self-aminoacylation [3]: 1.64
- self-aminoacylation [4]: 1.94

Sequence: AUUACCGCGGUCAUCGAGUGA [Fam2.1 aminoacylation ribozyme variant]
- self-aminoacylation [1]: 3.36
- self-aminoacylation [2]: 3.11
- self-aminoacylation [3]: 6.47
- self-aminoacylation [4]: 5.86

Sequence: AUUAUCCUGGUCAUCGACUGA [Fam2.1 aminoacylation ribozyme variant]
- self-aminoacylation [1]: 0.875
- self-aminoacylation [2]: 0.785
- self-aminoacylation [3]: 0.941
- self-aminoacylation [4]: 0.65

Sequence: CUCAUUCAAACAAUCGGUCUG [Fam1A.1 aminoacylation ribozyme variant]
- self-aminoacylation [1]: 0.991
- self-aminoacylation [2]: 0.903
- self-aminoacylation [3]: 1.23
- self-aminoacylation [4]: 0.966

Sequence: CAACUUCAAAGAAUCGGUCUG [Fam1A.1 aminoacylation ribozyme variant]
- self-aminoacylation [1]: 1.19
- self-aminoacylation [2]: 0.927
- self-aminoacylation [3]: 1.13
- self-aminoacylation [4]: 1.2

Sequence: CCACACUCCAAUCAAUCGGUC [Fam1B.1 aminoacylation ribozyme variant]
- self-aminoacylation [1]: 0.996
- self-aminoacylation [2]: 0.814
- self-aminoacylation [3]: 0.754
- self-aminoacylation [4]: 0.686

Sequence: AUUACCCUUGUCAUCGAGUAA [Fam2.1 aminoacylation ribozyme variant]
- self-aminoacylation [1]: 1.19
- self-aminoacylation [2]: 1.13
- self-aminoacylation [3]: 1.22
- self-aminoacylation [4]: 1.36

Sequence: ACAAACUUCAAGCAAUCGGUC [Fam1B.1 aminoacylation ribozyme variant]
- self-aminoacylation [1]: 1.61
- self-aminoacylation [2]: 1.47
- self-aminoacylation [3]: 1.51
- self-aminoacylation [4]: 1.41

Sequence: ACGUUUGCUAAUAGUCGCCAG [Fam3.1 aminoacylation ribozyme variant]
- self-aminoacylation [1]: 1.85
- self-aminoacylation [2]: 1.61
- self-aminoacylation [3]: 1.94

Sequence: GAGUUGGCUAAUAGUCGCAAG [Fam3.1 aminoacylation ribozyme variant]
- self-aminoacylation [3]: 1.69

Sequence: CCGCACCUCAAGCAAUCGGUC [Fam1B.1 aminoacylation ribozyme variant]
- self-aminoacylation [1]: 1.19
- self-aminoacylation [3]: 1.26
- self-aminoacylation [4]: 1.24

Sequence: ACGUCUGCUAAUAGUCGCAAG [Fam3.1 aminoacylation ribozyme variant]
- self-aminoacylation [2]: 1.81
- self-aminoacylation [3]: 1.57

Sequence: CCACACUUCAAGCCAUCGGUU [Fam1B.1 aminoacylation ribozyme variant]
- self-aminoacylation [1]: 1.59
- self-aminoacylation [3]: 1.86
- self-aminoacylation [4]: 1.86

Sequence: AAGAAUGCUAAUAGUCGCAAG [Fam3.1 aminoacylation ribozyme variant]
- self-aminoacylation [1]: 1.89
- self-aminoacylation [2]: 1.4
- self-aminoacylation [3]: 1.34

Sequence: ACGUUUGCUAAAAGUCGCAAG [Fam3.1 aminoacylation ribozyme variant]
- self-aminoacylation [1]: 1.61
- self-aminoacylation [2]: 1.78
- self-aminoacylation [3]: 1.58

Sequence: AUUCACCCAGGUCAUAGGGUG [Fam2.2 aminoacylation ribozyme variant]
- self-aminoacylation [1]: 1.54
- self-aminoacylation [2]: 1.61
- self-aminoacylation [4]: 1.66

Sequence: AAGUUUGCUCAUAGUGGCAAG [Fam3.1 aminoacylation ribozyme variant]
- self-aminoacylation [1]: 0.71
- self-aminoacylation [2]: 0.774
- self-aminoacylation [4]: 0.618

Sequence: CCCCAUUUCAAGCAAUCGGUC [Fam1B.1 aminoacylation ribozyme variant]
- self-aminoacylation [3]: 1.74
- self-aminoacylation [4]: 1.95

Sequence: CAGCUUCAAACAAUCGGUCUG [Fam1A.1 aminoacylation ribozyme variant]
- self-aminoacylation [1]: 1.47
- self-aminoacylation [2]: 1.38
- self-aminoacylation [4]: 1.32
